Here are results for one substance from patent US4680283A (Merck & Co., Inc., priority 1986, dated 1987).

Strings that start with PEPTIDE1 are HELM notation: dots part the residues, brackets hold end groups and non-standard residues.

A short description of the data set: general procedure: peptide synthesis; acyl azide (isoamyl nitrite/HCl). The following applies: coupling step, side-chain lactam ring.

The substance “PEPTIDE1{[pGlu].F.F.[R-Lac-Leu].M.[am]}$$$$V2.0” registered a step yield of 31%. The “final HPLC purity” value (HPLC) was found to be 97%.
